# Measured values as given in the supplement of paper PMC10849652.
# The chains behind the UniProt entries cited, without tags or fusion partners. Where a name states a change or a piece, a line headed by the entry shows the natural chain unless it says otherwise.
# UniProt Q08431: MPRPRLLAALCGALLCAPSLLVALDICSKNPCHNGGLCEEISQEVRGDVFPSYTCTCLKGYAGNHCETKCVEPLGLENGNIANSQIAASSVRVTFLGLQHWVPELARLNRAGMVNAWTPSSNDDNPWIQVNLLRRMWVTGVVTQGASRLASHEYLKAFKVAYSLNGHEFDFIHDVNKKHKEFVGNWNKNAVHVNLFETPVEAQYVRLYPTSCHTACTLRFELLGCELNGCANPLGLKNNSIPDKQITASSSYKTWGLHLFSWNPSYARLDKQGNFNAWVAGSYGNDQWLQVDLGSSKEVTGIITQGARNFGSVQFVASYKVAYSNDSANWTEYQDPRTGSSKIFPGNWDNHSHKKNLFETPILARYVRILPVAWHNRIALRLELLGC
# UniProt Q10469: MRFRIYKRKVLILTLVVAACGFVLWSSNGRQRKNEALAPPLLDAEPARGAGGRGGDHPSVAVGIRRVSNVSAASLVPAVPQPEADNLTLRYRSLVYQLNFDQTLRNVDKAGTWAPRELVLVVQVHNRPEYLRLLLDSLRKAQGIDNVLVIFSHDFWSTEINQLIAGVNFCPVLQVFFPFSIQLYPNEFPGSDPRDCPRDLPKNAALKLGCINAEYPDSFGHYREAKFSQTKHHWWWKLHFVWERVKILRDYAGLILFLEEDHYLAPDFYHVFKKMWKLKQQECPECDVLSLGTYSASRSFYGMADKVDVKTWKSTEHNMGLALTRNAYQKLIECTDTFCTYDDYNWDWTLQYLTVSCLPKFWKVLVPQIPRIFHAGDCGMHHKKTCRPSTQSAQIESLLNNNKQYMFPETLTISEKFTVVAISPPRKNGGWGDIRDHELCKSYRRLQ
# UniProt Q9NR56: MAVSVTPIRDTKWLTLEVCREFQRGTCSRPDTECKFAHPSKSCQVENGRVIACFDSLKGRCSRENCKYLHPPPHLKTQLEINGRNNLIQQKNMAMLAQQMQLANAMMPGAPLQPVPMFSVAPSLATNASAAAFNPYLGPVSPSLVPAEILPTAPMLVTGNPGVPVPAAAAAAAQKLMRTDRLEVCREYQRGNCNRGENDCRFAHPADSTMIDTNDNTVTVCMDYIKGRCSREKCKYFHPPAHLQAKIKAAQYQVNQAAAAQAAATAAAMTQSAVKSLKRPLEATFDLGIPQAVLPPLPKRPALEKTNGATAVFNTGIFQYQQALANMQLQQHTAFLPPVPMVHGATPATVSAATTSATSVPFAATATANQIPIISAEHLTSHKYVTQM
# UniProt P61244, whole entry, looked up: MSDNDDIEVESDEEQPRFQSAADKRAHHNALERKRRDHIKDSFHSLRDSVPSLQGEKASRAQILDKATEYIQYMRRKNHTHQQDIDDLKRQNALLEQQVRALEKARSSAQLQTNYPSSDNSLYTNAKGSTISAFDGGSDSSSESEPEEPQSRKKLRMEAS
# UniProt Q7Z434: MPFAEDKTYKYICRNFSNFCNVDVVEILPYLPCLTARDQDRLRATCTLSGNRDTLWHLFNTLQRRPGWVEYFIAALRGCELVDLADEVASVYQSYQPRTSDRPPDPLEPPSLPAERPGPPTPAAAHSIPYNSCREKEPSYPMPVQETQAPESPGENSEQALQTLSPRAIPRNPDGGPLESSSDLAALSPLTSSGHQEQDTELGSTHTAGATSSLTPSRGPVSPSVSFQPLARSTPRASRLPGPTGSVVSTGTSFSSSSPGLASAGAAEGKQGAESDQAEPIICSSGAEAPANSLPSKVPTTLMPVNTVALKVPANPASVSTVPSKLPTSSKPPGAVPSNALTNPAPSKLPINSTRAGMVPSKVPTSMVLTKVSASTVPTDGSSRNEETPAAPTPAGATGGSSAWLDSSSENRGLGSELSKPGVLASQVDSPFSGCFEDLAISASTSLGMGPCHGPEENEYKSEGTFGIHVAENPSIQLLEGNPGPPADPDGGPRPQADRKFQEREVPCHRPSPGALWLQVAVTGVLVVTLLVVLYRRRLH
# UniProt Q96HR3: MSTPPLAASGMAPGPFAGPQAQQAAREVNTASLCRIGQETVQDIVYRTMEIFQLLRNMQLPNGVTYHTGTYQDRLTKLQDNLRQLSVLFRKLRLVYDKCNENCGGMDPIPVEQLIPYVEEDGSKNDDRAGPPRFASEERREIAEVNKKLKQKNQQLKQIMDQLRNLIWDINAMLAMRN
# UniProt O95983: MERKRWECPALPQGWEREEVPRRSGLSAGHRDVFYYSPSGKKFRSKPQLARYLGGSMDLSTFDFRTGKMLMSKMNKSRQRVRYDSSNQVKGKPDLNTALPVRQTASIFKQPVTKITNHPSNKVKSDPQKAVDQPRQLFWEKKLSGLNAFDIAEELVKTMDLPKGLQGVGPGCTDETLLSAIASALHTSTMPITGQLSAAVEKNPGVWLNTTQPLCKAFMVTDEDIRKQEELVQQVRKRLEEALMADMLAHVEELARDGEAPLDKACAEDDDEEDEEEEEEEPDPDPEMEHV
# UniProt Q8IVS2: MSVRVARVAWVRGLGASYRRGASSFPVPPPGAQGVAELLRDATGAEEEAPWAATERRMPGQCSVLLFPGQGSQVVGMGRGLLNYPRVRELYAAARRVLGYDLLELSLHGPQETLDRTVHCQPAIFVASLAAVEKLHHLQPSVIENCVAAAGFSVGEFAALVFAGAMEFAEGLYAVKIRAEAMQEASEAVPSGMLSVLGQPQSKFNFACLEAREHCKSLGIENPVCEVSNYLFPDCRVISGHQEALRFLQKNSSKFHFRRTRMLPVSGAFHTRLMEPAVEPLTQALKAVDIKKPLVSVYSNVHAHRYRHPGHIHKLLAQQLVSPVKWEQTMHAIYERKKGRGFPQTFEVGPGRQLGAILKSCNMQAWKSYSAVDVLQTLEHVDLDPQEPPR
# UniProt P43121, whole entry, looked up: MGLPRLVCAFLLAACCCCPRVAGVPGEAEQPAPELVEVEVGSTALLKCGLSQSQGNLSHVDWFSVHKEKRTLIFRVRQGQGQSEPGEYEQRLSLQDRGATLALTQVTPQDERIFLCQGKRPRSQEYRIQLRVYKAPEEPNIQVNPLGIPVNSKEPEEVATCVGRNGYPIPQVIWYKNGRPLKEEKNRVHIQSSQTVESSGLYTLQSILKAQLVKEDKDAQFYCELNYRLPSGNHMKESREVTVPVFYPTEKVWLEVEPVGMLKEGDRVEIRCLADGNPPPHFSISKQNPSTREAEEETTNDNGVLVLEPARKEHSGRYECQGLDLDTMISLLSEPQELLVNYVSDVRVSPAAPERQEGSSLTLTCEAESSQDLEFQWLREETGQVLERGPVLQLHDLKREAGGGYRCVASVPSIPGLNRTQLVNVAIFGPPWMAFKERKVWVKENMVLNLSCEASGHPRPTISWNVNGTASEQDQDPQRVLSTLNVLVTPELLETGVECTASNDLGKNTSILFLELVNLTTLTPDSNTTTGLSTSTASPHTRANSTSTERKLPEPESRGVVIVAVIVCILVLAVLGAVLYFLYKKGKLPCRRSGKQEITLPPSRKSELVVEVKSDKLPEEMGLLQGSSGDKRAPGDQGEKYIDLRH
# UniProt P31153, whole entry, looked up: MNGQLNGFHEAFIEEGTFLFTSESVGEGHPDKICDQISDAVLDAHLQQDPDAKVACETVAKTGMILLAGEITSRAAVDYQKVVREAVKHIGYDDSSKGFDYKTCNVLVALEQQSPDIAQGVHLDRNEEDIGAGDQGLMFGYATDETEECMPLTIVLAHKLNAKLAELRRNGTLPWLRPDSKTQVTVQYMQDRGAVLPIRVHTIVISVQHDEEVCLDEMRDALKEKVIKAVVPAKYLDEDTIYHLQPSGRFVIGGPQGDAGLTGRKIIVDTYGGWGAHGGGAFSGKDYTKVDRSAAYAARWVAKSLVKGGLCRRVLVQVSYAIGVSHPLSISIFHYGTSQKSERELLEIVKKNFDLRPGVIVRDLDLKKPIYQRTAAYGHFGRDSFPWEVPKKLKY
# UniProt Q9HCC0: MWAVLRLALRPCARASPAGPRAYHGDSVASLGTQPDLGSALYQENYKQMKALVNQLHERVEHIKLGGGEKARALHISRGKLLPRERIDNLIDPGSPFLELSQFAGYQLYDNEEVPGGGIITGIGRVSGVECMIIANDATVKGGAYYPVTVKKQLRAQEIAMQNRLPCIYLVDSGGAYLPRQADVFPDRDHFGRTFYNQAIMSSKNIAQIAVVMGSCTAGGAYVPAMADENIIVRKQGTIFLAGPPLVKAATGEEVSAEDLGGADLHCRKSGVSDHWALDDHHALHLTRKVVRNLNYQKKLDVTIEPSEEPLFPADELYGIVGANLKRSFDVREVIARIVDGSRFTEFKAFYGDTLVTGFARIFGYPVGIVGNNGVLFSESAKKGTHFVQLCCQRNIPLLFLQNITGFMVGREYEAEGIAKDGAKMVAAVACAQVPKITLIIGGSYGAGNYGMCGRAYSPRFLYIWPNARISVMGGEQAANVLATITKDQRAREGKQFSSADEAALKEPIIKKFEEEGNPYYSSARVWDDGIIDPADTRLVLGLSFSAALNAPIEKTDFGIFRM
# UniProt Q16626: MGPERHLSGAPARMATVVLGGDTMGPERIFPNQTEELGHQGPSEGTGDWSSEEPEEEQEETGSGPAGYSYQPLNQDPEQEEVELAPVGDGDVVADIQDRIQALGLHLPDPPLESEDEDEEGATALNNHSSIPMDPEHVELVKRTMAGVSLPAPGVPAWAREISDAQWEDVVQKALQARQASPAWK
# UniProt Q9Y316: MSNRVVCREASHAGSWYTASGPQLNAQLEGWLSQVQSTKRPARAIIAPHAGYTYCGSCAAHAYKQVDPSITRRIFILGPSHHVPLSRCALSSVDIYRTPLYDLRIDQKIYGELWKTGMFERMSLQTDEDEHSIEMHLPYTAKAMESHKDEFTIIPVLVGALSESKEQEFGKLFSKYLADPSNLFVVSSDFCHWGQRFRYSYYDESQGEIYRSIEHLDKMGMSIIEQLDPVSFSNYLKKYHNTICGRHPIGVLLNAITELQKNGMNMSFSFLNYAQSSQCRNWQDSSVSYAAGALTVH
# UniProt Q86W50: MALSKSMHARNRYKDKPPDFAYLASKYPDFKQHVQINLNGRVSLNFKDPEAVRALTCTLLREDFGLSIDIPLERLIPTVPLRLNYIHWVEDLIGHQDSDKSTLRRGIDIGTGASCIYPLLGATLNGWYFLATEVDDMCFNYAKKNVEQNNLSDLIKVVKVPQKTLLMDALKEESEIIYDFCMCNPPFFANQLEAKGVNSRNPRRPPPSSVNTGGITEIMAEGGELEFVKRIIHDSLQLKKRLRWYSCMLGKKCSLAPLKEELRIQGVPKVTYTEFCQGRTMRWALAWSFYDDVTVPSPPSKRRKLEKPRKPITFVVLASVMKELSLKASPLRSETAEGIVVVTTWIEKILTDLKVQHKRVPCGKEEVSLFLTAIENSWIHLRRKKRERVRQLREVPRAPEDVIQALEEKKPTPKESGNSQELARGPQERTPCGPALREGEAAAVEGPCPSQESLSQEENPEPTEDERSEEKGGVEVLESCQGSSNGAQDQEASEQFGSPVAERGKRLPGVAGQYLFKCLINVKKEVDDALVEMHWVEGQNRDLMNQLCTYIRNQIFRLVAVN
# UniProt O95140: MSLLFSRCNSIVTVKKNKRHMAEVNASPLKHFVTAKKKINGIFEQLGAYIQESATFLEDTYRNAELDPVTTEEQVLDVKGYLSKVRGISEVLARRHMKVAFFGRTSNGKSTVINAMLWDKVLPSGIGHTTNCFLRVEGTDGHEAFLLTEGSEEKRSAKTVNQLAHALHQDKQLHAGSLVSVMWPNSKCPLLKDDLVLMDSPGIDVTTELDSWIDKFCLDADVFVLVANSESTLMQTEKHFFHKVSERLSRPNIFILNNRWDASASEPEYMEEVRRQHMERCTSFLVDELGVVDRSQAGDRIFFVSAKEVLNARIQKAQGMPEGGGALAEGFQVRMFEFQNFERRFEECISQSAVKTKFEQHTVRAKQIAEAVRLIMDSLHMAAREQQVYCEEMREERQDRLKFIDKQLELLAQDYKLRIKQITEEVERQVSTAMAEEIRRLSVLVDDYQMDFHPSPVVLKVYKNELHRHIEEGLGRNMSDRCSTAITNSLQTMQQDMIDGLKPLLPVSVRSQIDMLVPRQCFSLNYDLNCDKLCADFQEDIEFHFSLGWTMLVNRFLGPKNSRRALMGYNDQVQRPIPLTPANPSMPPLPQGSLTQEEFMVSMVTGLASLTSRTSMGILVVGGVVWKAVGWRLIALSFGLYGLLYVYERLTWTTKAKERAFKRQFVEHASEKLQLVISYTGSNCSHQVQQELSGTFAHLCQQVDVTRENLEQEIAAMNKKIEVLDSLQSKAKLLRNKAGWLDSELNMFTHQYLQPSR
# The list shows a part of the results.
# How the values were obtained:
# Experiment in all cases: log2 fold change, soluble protein after heating vs DMSO (PISA); higher = thermal stabilisation; K562 cells, 10 uM, 30 min; active = over 0.2 and 3.5 SD of the protein, either way, in both replicates (recomputed)
# [1] = compound: CC1=C(C=C(C=C1)NC(=O)C2=CC(=CC=C2)C(C)(C)C#N)NC3=CC4=C(C=C3)N=CN(C4=O)C
# Method in brief: (§1)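 Aliquots of K562 cells (2×10^6 cells/mL) treated with 10 μM compound for 30 min were heated for 3 min over 48°C-58°C. After pooling and extraction in PBS with 0.5% NP-40 at 4°C, soluble protein from a 21,000xg, 90 min spin was quantified by TMTpro 16plex LC-MS/MS with channel sums equalised. Thermal stability is expressed against control samples, from duplicates, as a log2 fold change.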
# [2] = compound: CC1=C(C=C(C=C1)NC(=O)C2=CC(=CC=C2)N(C)C)NC(=O)C3=CC=C(C=C3)O
# Method in brief: as §1
# [3] = compound: CC1=CC=C(C=C1)SC2=C3C=C(SC3=CN=C2)C(=O)N
# Method in brief: as §1
# [4] = compound: CC1=NC(=CC=C1)C2=C(N=C(N2)C(C)(C)C)C3=CC4=NC=CN=C4C=C3
# Method in brief: as §1
# [5] = compound: CCCCN(Cc1ccc(C(=O)NO)cc1)C(=O)Nc1ccccc1 [Nexturastat A]
# Method in brief: as §1
# [6] = compound: CCCS(=O)(=O)Nc1ccc(F)c(C(=O)c2c[nH]c3ncc(-c4ccc(Cl)cc4)cc23)c1F [vemurafenib]
# Method in brief: as §1
# [7] = compound: CCCS(=O)(=O)Nc1ccc(F)c(C(=O)c2c[nH]c3ncc(Cl)cc23)c1F
# Method in brief: as §1
# [8] = compound: CCCc1cc(C)[nH]c(=O)c1CNC(=O)c1cc(-c2ccnc(N3CCN(C)CC3)c2)cc2c1cnn2C(C)C
# Method in brief: as §1
# [9] = compound: CCN(CC)Cc1ccc2cc(COC(=O)Nc3ccc(C(=O)NO)cc3)ccc2c1 [givinostat]
# Method in brief: as §1
# [10] = compound: CCN(CCCOc1ccc2c(Nc3cc(CC(=O)Nc4cccc(F)c4)[nH]n3)ncnc2c1)CCOP(=O)(O)O [barasertib]
# Method in brief: as §1
# [11] = compound: CC[C@@H]1C(=O)N(C)c2cnc(Nc3ccc(C(=O)NC4CCN(C)CC4)cc3OC)nc2N1C1CCCC1
# Method in brief: as §1
# [12] = compound: CC[C@@H]1C(=O)N(C)c2cnc(Nc3ccc(C(=O)N[C@H]4CC[C@H](N5CCN(CC6CC6)CC5)CC4)cc3OC)nc2N1C(C)C [volasertib]
# Method in brief: as §1
# [13] = compound: CC[C@H](C)N1C=C(C2=C(C=C(C=C21)C3=CN=C(C=C3)N4CCNCC4)C(=O)NCC5=C(C=C(NC5=O)C)C)C
# Method in brief: as §1
# [14] = compound: CC[C@H](C)[C@@H](C(=O)N[C@@H]([C@@H](C)O)C(=O)N[C@@H](CC(C)C)C(=O)[C@]1(CO1)C)NC(=O)[C@H]([C@@H](C)CC)N(C)C(=O)C [epoxomicin]
# Method in brief: as §1
# [15] = compound: CCn1cc(-c2ccnc3[nH]c(-c4cccc(CN(C)C)c4)cc23)c(-c2ccc(NC(=O)N(C)C)cc2)n1
# Method in brief: as §1
# [16] = compound: CN(C)CC(=O)Nc1ccc2[nH]c(=O)c3ccccc3c2c1
# Method in brief: as §1
# [17] = compound: CN1C2=C(C3=C1C(=O)N(N=C3)CC4=CC(=CC=C4)N)SC(=C2)S(=O)C
# Method in brief: as §1
# [18] = compound: CN1CCC(CNc2ccc3ncc(-c4cccc(OC(F)(F)F)c4)n3n2)CC1
# Method in brief: as §1
# [19] = compound: CCn1c(C(=O)N(C2CC2)C2CC2)cc2c3c(ncn3C)c(Nc3cc(C)n(C)n3)nc21
# Method in brief: as §1
# [20] = compound: CN(CCOC1=CC=C(C=C1)C[C@H]2C(=O)NC(=O)S2)C3=CC=CC=N3 (racemic) [rosiglitazone]
# Method in brief: as §1
Target,log2 fold change [1],log2 fold change [2],log2 fold change [3],log2 fold change [4],log2 fold change [5],log2 fold change [6],log2 fold change [7],log2 fold change [8],log2 fold change [9],log2 fold change [10],log2 fold change [11],log2 fold change [12],log2 fold change [13],log2 fold change [14],log2 fold change [15],log2 fold change [16],log2 fold change [17],log2 fold change [18],log2 fold change [19],log2 fold change [20]
MFGE8 (UniProt Q08431),inactive: 0.034,inactive: -0.027,inactive: -0.122,inactive: -0.061,inactive: 0.161,inactive: -0.028,inactive: -0.124,inactive: 0.019,inactive: -0.004,inactive: -0.057,inactive: 0.061,inactive: 0.362,inactive: -0.007,inactive: -0.003,inactive: -0.057,inactive: -0.103,inactive: 0.114,inactive: 0.098,,
MGAT2 (UniProt Q10469),inactive: 0.017,inactive: 0.008,inactive: 0.001,inactive: -0.007,inactive: -0.001,inactive: 0.038,inactive: 0.016,inactive: 0.19,inactive: -0.017,inactive: 0.022,inactive: -0.089,inactive: -0.104,inactive: 0.045,inactive: 0.034,inactive: -0.009,inactive: 0.029,inactive: -0.059,inactive: 0.017,inactive: 0.024,inactive: 0.025
MBNL1 (UniProt Q9NR56),inactive: -0.011,inactive: 0.047,inactive: -0.01,inactive: -0.01,inactive: -0.039,inactive: -0.087,inactive: -0.009,inactive: -0.028,inactive: 0.019,inactive: -0.018,inactive: 0.014,inactive: 0.028,inactive: -0.016,inactive: 0.006,inactive: -0.011,inactive: -0.123,inactive: 0.026,inactive: -0.007,inactive: 0.005,inactive: -0.047
MAX (UniProt P61244),inactive: -0.043,inactive: 0.012,inactive: -0.083,inactive: -0.011,inactive: -0.034,inactive: 0.113,inactive: -0.064,inactive: -0.055,inactive: -0.144,inactive: -0.007,inactive: 0.095,inactive: 0.132,inactive: 0.015,inactive: 0.021,inactive: -0.019,inactive: -0.039,inactive: -0.015,inactive: 0.029,inactive: 0.061,inactive: 0.008
MAVS (UniProt Q7Z434),inactive: -0.033,inactive: 0,inactive: 0.011,inactive: 0.032,inactive: -0.025,inactive: 0.053,inactive: -0.009,inactive: -0.027,inactive: 0.012,inactive: -0.019,inactive: -0.001,inactive: -0.033,inactive: -0.015,inactive: -0.035,inactive: -0.002,inactive: -0.033,inactive: -0.026,inactive: -0.039,inactive: 0.004,inactive: 0.015
MED30 (UniProt Q96HR3),inactive: -0.071,inactive: 0.009,inactive: 0.003,inactive: 0.001,inactive: 0.123,inactive: -0.028,inactive: 0.032,inactive: -0.097,inactive: -0.026,inactive: 0.015,inactive: 0.042,inactive: -0.013,inactive: -0.019,inactive: -0.109,,inactive: -0.022,inactive: 0.033,,inactive: 0.108,inactive: 0.039
MBD3 (UniProt O95983),inactive: -0.053,inactive: -0.024,inactive: -0.028,inactive: -0.022,inactive: 0.024,inactive: 0.004,inactive: 0,inactive: 0.041,inactive: 0.066,inactive: -0.011,inactive: -0.062,inactive: -0.078,inactive: 0.027,inactive: 0.002,inactive: 0.11,inactive: -0.002,inactive: 0.012,inactive: 0.014,inactive: -0.024,inactive: 0.044
MCAT (UniProt Q8IVS2),inactive: -0.023,inactive: 0.006,inactive: -0.007,inactive: -0.115,inactive: 0.041,inactive: -0.036,inactive: 0.01,inactive: 0.031,inactive: 0.018,inactive: -0.038,inactive: 0.08,inactive: 0.112,inactive: 0.017,inactive: -0.075,inactive: 0.032,inactive: -0.072,inactive: 0.051,inactive: 0.215,inactive: -0.031,inactive: -0.049
MFSD5 isoform 2 (UniProt Q6N075),inactive: 0.038,inactive: 0.015,inactive: -0.078,inactive: 0.064,inactive: -0.014,inactive: 0.023,inactive: -0.118,inactive: -0.039,inactive: -0.039,inactive: 0.122,inactive: 0.052,inactive: 0.111,inactive: -0.124,active: 0.427,inactive: 0.028,inactive: -0.092,inactive: -0.056,inactive: 0.14,,
MCAM (UniProt P43121),inactive: 0.009,inactive: -0.005,inactive: 0.037,inactive: 0.011,inactive: -0.007,inactive: -0.022,inactive: 0.003,inactive: -0.068,inactive: -0.018,inactive: -0.014,inactive: 0.117,inactive: 0.072,inactive: -0.044,inactive: -0.011,inactive: -0.069,inactive: -0.029,inactive: -0.027,inactive: 0.19,inactive: 0.028,inactive: -0.003
MAT2A (UniProt P31153),inactive: -0.028,inactive: 0.011,inactive: -0.014,inactive: -0.021,inactive: -0.061,inactive: -0.028,inactive: -0.05,inactive: -0.012,inactive: -0.022,inactive: 0.031,inactive: 0.004,inactive: 0.068,inactive: -0.035,inactive: 0.006,inactive: 0.018,inactive: -0.047,inactive: -0.018,inactive: -0.021,inactive: 0.023,inactive: -0.005
MCCC2 (UniProt Q9HCC0),inactive: 0.048,inactive: -0.028,inactive: 0.026,inactive: 0.04,inactive: -0.04,inactive: 0.011,inactive: 0.013,inactive: -0.028,inactive: -0.049,inactive: -0.02,inactive: 0.003,inactive: 0.038,inactive: -0.032,inactive: -0.018,inactive: -0.013,inactive: 0.003,inactive: -0.031,inactive: 0.027,,
MEA1 (UniProt Q16626),inactive: 0.049,inactive: -0.049,inactive: 0.025,inactive: 0.008,inactive: 0.01,inactive: 0.092,inactive: -0.037,inactive: -0.066,inactive: 0.029,inactive: 0.07,inactive: -0.037,inactive: 0.055,inactive: 0.032,inactive: 0.069,inactive: -0.086,inactive: 0.042,inactive: -0.005,inactive: 0.064,inactive: 0.03,inactive: 0.026
MEMO1 (UniProt Q9Y316),inactive: -0.019,inactive: -0.005,inactive: -0.015,inactive: -0.033,inactive: -0.036,inactive: 0.019,inactive: 0.012,inactive: -0.03,inactive: -0.16,inactive: 0.02,inactive: -0.002,inactive: 0.123,inactive: 0.02,inactive: 0.108,inactive: -0.085,inactive: -0.007,inactive: -0.108,inactive: -0.165,inactive: -0.01,inactive: 0.035
METTL16 (UniProt Q86W50),inactive: 0.028,inactive: -0.069,inactive: 0.003,inactive: -0.029,inactive: 0.031,inactive: 0.006,inactive: 0.071,inactive: 0.013,inactive: 0.005,inactive: 0.029,inactive: -0.034,inactive: -0.14,inactive: 0.02,inactive: 0.032,inactive: 0.021,inactive: 0.016,inactive: -0.046,inactive: -0.081,inactive: -0.005,inactive: -0.003
MFN2 (UniProt O95140),inactive: -0.021,inactive: -0.029,inactive: 0.018,inactive: 0.009,inactive: -0.022,inactive: 0.019,inactive: 0.064,inactive: -0.004,inactive: 0.01,inactive: 0.025,inactive: -0.1,inactive: -0.23,inactive: 0.011,inactive: 0.047,inactive: 0.011,inactive: 0.009,inactive: -0.011,inactive: -0.213,,

# 2 entries from above, as tab-separated lines.
Target	log2 fold change [1]	log2 fold change [2]	log2 fold change [3]	log2 fold change [4]	log2 fold change [5]	log2 fold change [6]	log2 fold change [7]	log2 fold change [8]	log2 fold change [9]	log2 fold change [10]	log2 fold change [11]	log2 fold change [12]	log2 fold change [13]	log2 fold change [14]	log2 fold change [15]	log2 fold change [16]	log2 fold change [17]	log2 fold change [18]	log2 fold change [19]	log2 fold change [20]
MEMO1 (UniProt Q9Y316)	inactive: -0.019	inactive: -0.005	inactive: -0.015	inactive: -0.033	inactive: -0.036	inactive: 0.019	inactive: 0.012	inactive: -0.03	inactive: -0.16	inactive: 0.02	inactive: -0.002	inactive: 0.123	inactive: 0.02	inactive: 0.108	inactive: -0.085	inactive: -0.007	inactive: -0.108	inactive: -0.165	inactive: -0.01	inactive: 0.035
METTL16 (UniProt Q86W50)	inactive: 0.028	inactive: -0.069	inactive: 0.003	inactive: -0.029	inactive: 0.031	inactive: 0.006	inactive: 0.071	inactive: 0.013	inactive: 0.005	inactive: 0.029	inactive: -0.034	inactive: -0.14	inactive: 0.02	inactive: 0.032	inactive: 0.021	inactive: 0.016	inactive: -0.046	inactive: -0.081	inactive: -0.005	inactive: -0.003
